Some results were stated once for a whole list of compounds, not compound by compound.
System: HBV
Test: HBV entry/infection of DMSO-differentiated HuS-E/2 cells (HBsAg/HBeAg ELISA, HBV mRNA RT-PCR)
Format: cell-based, Hepatitis B virus
Conditions: drug present during HBV infection, 20 μg/ml, medium after 48 hours
Procedure: (§1) DMSO-differentiated HuS-E/2 cells were exposed to HBV at a MOI of 10 for 20 h in the presence of the indicated concentration of Antrodia camphorata fruit body extracts, then the HBV and drugs were removed and the cells incubated for 2 days, when HBsAg secreted into the culture medium was measured by ELISA and expressed as a percentage of the value for the non-drug-treated controls. The results are the mean±SD for three independent experiments. *, P<0.05; **, P<0.01; ***, P<0.001.
as §1, with “HBeAg” for “HBsAg”
DMSO-differentiated HuS-E/2 cells were exposed to HBV at a MOI of 10 for 20 h in the presence of the indicated concentration of Antrodia camphorata fruit body extracts, then the HBV and drugs were removed and the cells incubated for 2 days. […]
Total DNA is extracted with a Genomic DNA isolation kit (Nexttec Biotechnologie, Germany). […] The results are analyzed with the iCycler iQ real-time PCR detection system (Bio-Rad). […]

Structure (SMILES): C=C(CC[C@@H](C(=O)O)[C@H]1CC[C@@]2(C)C3=CC[C@H]4C(C)(C)[C@@H](O)CC[C@]4(C)C3=CC[C@]12C)C(C)C [A6, dehydroeburicoic acid]
- decrease in HBV HBeAg levels: greater than 80%
- decrease in HBV HBsAg levels: greater than 80%
